Results from PMC8062009.
Results are given in words; binding and its absence hold for the method and conditions named. In cells and extracts the contact can be indirect. Some binding calls cover weakened binding; strength is not graded here.

Chains of the proteins cited; added tags and fusions are not shown.
UniProt P46093: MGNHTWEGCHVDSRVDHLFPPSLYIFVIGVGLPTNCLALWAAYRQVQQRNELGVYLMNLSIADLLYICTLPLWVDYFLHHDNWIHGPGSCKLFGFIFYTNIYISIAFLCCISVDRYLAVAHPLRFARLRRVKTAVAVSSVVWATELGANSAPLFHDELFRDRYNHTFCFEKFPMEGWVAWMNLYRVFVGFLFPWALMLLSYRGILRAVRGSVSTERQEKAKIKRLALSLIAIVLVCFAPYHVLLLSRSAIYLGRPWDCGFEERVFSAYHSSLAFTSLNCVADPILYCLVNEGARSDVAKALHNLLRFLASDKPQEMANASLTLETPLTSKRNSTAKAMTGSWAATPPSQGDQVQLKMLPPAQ
UniProt O15218: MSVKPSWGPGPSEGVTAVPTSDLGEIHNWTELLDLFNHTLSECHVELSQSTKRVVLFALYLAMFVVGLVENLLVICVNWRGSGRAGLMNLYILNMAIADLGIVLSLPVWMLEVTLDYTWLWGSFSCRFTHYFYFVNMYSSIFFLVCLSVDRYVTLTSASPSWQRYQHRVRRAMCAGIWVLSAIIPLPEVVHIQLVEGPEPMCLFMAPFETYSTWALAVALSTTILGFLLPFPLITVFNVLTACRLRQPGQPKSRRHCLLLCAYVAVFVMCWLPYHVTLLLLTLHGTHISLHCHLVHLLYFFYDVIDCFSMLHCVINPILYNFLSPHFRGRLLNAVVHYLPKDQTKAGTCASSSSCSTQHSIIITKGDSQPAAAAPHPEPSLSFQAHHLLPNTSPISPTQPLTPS
UniProt P49407: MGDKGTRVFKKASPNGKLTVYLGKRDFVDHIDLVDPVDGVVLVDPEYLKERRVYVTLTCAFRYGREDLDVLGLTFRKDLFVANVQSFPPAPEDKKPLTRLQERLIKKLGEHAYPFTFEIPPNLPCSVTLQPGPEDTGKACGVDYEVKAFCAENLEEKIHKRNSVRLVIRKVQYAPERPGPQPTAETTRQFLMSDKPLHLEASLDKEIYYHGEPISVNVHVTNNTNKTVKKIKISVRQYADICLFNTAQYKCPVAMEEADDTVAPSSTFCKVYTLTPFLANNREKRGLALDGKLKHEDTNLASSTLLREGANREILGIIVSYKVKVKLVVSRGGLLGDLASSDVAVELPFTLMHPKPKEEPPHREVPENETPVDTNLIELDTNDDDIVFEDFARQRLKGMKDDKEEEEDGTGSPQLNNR
UniProt P32121: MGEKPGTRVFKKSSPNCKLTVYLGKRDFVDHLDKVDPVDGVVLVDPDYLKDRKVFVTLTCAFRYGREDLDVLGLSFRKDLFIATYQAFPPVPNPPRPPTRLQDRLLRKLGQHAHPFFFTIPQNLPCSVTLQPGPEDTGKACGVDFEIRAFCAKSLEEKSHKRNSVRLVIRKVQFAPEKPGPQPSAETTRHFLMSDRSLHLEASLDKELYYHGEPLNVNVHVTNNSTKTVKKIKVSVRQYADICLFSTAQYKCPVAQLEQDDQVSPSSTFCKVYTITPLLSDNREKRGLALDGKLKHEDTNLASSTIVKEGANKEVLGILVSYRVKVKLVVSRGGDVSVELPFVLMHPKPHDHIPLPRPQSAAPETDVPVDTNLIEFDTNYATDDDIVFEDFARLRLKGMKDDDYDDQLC

How the values were obtained:
GPR4-Rluc8 = GPR4-Rluc8 (UniProt P46093); assay: FRET or BRET; basal net BRET between GPCR-Rluc8 and Venus-β-arrestin-1 or -2 in intact HEK 293 cells in DPBS, GRK2 and GRK6 co-transfected; no receptor ligand; interacting pairs detected as outliers (ROUT, FDR 1%)
GPR182-Rluc8 = GPR182-Rluc8 (UniProt O15218); assay: as above

Substance | binding (GPR4-Rluc8) | binding (GPR182-Rluc8)
Venus-β-arrestin-1 (from UniProt P49407 1-418) | binds | binds
Venus-β-arrestin-2 (from UniProt P32121 1-409) | binds | 
